This experiment has as its target T1, CLL1 screening antigen CLL1-6×His (B918602) protein (UniProt Q5QGZ9).
T1 sequence (looked up): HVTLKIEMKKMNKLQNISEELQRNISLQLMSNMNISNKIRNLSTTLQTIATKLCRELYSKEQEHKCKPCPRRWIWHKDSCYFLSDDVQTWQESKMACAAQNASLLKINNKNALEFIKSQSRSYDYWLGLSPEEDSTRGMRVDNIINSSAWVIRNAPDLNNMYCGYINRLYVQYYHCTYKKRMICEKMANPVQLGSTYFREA
The experiment in a line: positive clone from phage ELISA on coated screening antigen CLL1-6×His (OD450 > 0.5, confirmed by a second ELISA). (ELISA stands for enzyme-linked immunosorbent assay.)

No constants are given. Whether binding was seen depends on the method and setting. Some results given as binding are weak or reduced against the parent protein; the word gives no strength. Where a sequence is shown, tags or fusion partners need not be part of it.

B1: single-domain antibody CLL1-VHH-1 (VHH)
VHH: DVQLQESGGGLVQPGGSLRLSCAASGFTFGDYDMTWVRQAPGKGPEWVSAINSGGGSTYYADSVKGRFTISRDNAKNTLYLQMNSLKPEDTAVYYCATIDRLSTVVAGTYQPSDEYDYWGQGTQVTVSS
Turning to B1, the binding result is reported as “binds”.

Source of the values: EP4663658A1.
